According to patent publication US11852970B2, “Material for lithography, production method therefor, composition for lithography, pattern formation method, compound, resin, and method for purifying the compound or the resin” (Mitsubishi Gas Chemical Company, Inc., priority 2015, dated 2023):

Columns and labels:
[1] = Thin film formability of resist composition; design: key: A: the thin film formability was good; C: the formed film had defects; settings: resist composition spin coated on silicon wafer, prebaked 110° C., 40 nm film
[2] = Pattern evaluation of resist pattern (sensitivity and shape evaluation), electron beam; settings: minimum energy per unit area for pattern, electron beam 1:1 line and space, 60 nm film, 2.38% TMAH development

SMILES	Thin film formability [1]	Sensitivity evaluation [2]
Oc1ccc([Te](Cl)(Cl)c2ccc(O)cc2)cc1 [BHPT, bis(4-hydroxyphenyl)tellurium dichloride]	A	A (the pattern was obtained at less than 50 μC/cm^2)
CC1(OC(=O)COc2ccc([Te](Cl)(Cl)c3ccc(OCC(=O)OC4(C)C5CC6CC(C5)CC4C6)cc3)cc2)C2CC3CC(C2)CC1C3 (centres unmarked) [BHPT-ADBAC, bis(4-(2-methyl-2-adamantyloxycarbonylmethoxy)phenyl)tellurium dichloride]	A	A (the pattern was obtained at less than 50 μC/cm^2)
Oc1ccc([Te](Cl)(Cl)c2ccc(O)c(-c3ccccc3)c2)cc1-c1ccccc1 [Ph-BHPT, bis(3-phenyl-4-hydroxyphenyl)tellurium dichloride]	A	A (the pattern was obtained at less than 50 μC/cm^2)
CC1(OC(=O)COc2ccc([Te](Cl)(Cl)c3ccc(OCC(=O)OC4(C)C5CC6CC(C5)CC4C6)c(-c4ccccc4)c3)cc2-c2ccccc2)C2CC3CC(C2)CC1C3 (centres unmarked) [Ph-BHPT-ADBAC]	A	A (the pattern was obtained at less than 50 μC/cm^2)
Oc1ccc([Te]c2ccc(O)c(-c3ccccc3)c2)cc1-c1ccccc1 [Ph-TDP, bis(3-phenyl-4-hydroxyphenyl)tellurium]	A	A (the pattern was obtained at less than 50 μC/cm^2)
CC1(OC(=O)COc2ccc([Te]c3ccc(OCC(=O)OC4(C)C5CC6CC(C5)CC4C6)c(-c4ccccc4)c3)cc2-c2ccccc2)C2CC3CC(C2)CC1C3 (centres unmarked) [Ph-TDP-ADBAC]	A	A (the pattern was obtained at less than 50 μC/cm^2)
CC(C)(C)OC(=O)COc1ccc([Te]c2ccc(OCC(=O)OC(C)(C)C)cc2)cc1 [Ph-TDP-BOC]	A	A (the pattern was obtained at less than 50 μC/cm^2)
CCOC(C)Oc1ccc([Te](Cl)(Cl)c2ccc(OC(C)OCC)c(-c3ccccc3)c2)cc1-c1ccccc1 (centres unmarked) [Ph-TDP-EE]	A	A (the pattern was obtained at less than 50 μC/cm^2)
Oc1ccc([Te]c2ccc(O)cc2)cc1 [TDP, 4,4′-telluriumdiphenol]	A	A (the pattern was obtained at less than 50 μC/cm^2)
CC1(OC(=O)COc2ccc([Te]c3ccc(OCC(=O)OC4(C)C5CC6CC(C5)CC4C6)cc3)cc2)C2CC3CC(C2)CC1C3 (centres unmarked) [TDP-ADBAC]	A	A (the pattern was obtained at less than 50 μC/cm^2)

Some entries repeat one wording, which the source may state once for all of them.
